Reference: PMC4155172, “Killing of melanoma cells and their metastases by human lactoferricin derivatives requires interaction with the cancer marker phosphatidylserine” (Biometals, 2014)

Assays:
[1] = Tryptophan fluorescence and acrylamide quenching with DPPS membranes; settings: for λem,max in DPPS: lipid to peptide ratio 25:1; for KSV in DPPS: lipid to peptide ratio 25:1, acrylamide quenching
Method: (§1) Appropriate amounts of respective phospholipid stock solution were dried under a stream of nitrogen and stored in vacuum overnight to completely remove organic solvents. The dry lipid film was then dispersed in phosphate buffered saline (PBS, 20 mM NaPi, 130 mM NaCl, pH 7.4) and hydrated at a temperature well above the gel to fluid phase transition of the respective phospholipid under intermittent vigorous vortex-mixing. The lipid concentration was 0.1 weight % for calorimetric and 2 % for leakage experiments. Hydration was carried out in presence or absence of peptides at a lipid-to-peptide ratio of 25:1 and 12.5:1 using a protocol described for POPS (Jiménez-Monreal et al. [1998]), DPPS (Jing et al. [2005]) and DPPC (Sevcsik et al. [2007]). Briefly hydration of POPS films occurred at 30 °C, DPPS at 65 °C and DPPC at 50 °C, for 2 h with vortexing for 1 min every 15 min. The hydration of the lipid mixtures DPPS/DPPC 1:5 and DPPS/DPPC 1:1 were performed at 65 °C for 2 h by vortexing accompanied by one freeze–thaw cycle every 15 min. The fully hydrated samples were stored for at least 1 h at room temperature until measurement.
(§2) Fluorescence spectroscopy experiments were performed using a SPEX Fluoro Max-3 spectrofluorimeter (Jobin–Yvon, Longjumeaum, France) and spectra were analyzed with Datamax software.
(§3) Tryptophan fluorescence spectra were obtained at room temperature using an excitation wavelength of 282 nm and a slit width of 5 nm for excitation and emission monochromators. Quenching of Tryptophan was carried out in the presence and absence of phospholipid liposomes (lipid-to-peptide ratio 25:1) using 0.1, 0.4 and 0.7 M acrylamide. The data were analyzed according to the Stern–Volmer equation (Eq. 2):2 F0F0FF=1+KSVQ where F0 and F represent the fluorescence emission intensities in the absence and presence of the quencher molecule (Q) and KSV is the Stern–Volmer quenching constant, which is a quantitative measure for the accessibility of tryptophan to acrylamide (Tao and Cho [1979]).

[2] = Tryptophan fluorescence and acrylamide quenching with DPPC membranes; settings: for λem,max in DPPC: lipid to peptide ratio 25:1; for KSV in DPPC: lipid to peptide ratio 25:1, acrylamide quenching
Method: as §1, §2, §3

[3] = Tryptophan fluorescence and acrylamide quenching in PBS; format: physicochemical; settings: room temperature; for λem,max in PBS: Trp emission; for KSV in PBS: acrylamide 0.1, 0.4, 0.7 M, excitation 282 nm
[4] = Tryptophan fluorescence and acrylamide quenching with POPS membranes; settings: for λem,max in POPS: lipid to peptide ratio 25:1; for KSV in POPS: lipid to peptide ratio 25:1, acrylamide quenching

## PFWRIRIRR-NH2 [LF11-322]
[1]
  λem,max in DPPS: 334 nm
  KSV in DPPS: 7.9 M⁻¹
[2]
  λem,max in DPPC: 354 nm
  KSV in DPPC: 8.8 M⁻¹
[3]
  λem,max in PBS: 354 nm
  KSV in PBS: ~ 20 M^−1 and 19.7 M^−1
[4]
  λem,max in POPS: 338 nm
  KSV in POPS: 5.4 M⁻¹

## PFWRIRIRRPRRIRIRWFP-NH2 [R-DIM-P-LF11-322, retro repeat derivative: LF11-322-proline-LF11-322 retro]
[1]
  λem,max in DPPS: 335 nm
  KSV in DPPS: 4.3 M⁻¹
[2]
  λem,max in DPPC: 352 nm
  KSV in DPPC: 13.2 M⁻¹
[3]
  λem,max in PBS: 353 nm
  KSV in PBS: ~ 20 M^−1 and 19.1 M^−1
[4]
  λem,max in POPS: 334 nm
  KSV in POPS: 4.1 M⁻¹

## CCC(C)CCCCC(=O)N1CCC[C@H]1C(=O)N[C@@H](Cc1ccccc1)C(=O)N[C@@H](Cc1c[nH]c2ccccc12)C(=O)N[C@@H](CCCNC(=N)N)C(=O)N[C@H](C(=O)N[C@@H](CCCNC(=N)N)C(=O)N[C@H](C(=O)N[C@@H](CCCNC(=N)N)C(=O)N[C@@H](CCCNC(=N)N)C(N)=O)[C@@H](C)CC)[C@@H](C)CC (stereo partly drawn) [6-MO-LF11-322] ({Octanoyl(6-Me)}-PFWRIRIRR-NH2)
[1]
  λem,max in DPPS: 337 nm
  KSV in DPPS: 7.0 M⁻¹
[2]
  λem,max in DPPC: 344 nm
  KSV in DPPC: 10.5 M⁻¹
[3]
  λem,max in PBS: 353 nm
  KSV in PBS: ~ 20 M^−1 and 24.5 M^−1
[4]
  λem,max in POPS: 342 nm
  KSV in POPS: 4.5 M⁻¹

Several values for one entry are separate records, joined by “and”; a condition that tells them apart may be missing. Identical values can stand only once. Where a SMILES comes first, the peptide text is derived from it. The star is where a group is joined. Octanoyl(6-Me) = CCC(C)CCCCC(=O)*
